From PubChem BioAssay AID2685 (National Center for Advancing Translational Sciences (NCATS), 2010)
Some of the results follow. Further columns of the screen follow, without active or inactive calls. The list favours compounds with an active or inconclusive main result. Words in brackets tell the shape of the fitted curve; partial curves, single points and poor fits give uncertain potencies.

Assay: qHTS Assay for Lipid Storage Modulators in Drosophila S3 Cells;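 for cell number change: cells counted by Cell Tracker Red CMTPX staining in the red channel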
Conditions: BODIPY lipid droplet fluorescence, 18-24 h; for cell number change: measured here: cell count max response, cells fed with added oleic acid
Method in brief: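 Drosophila S3 cells got compounds at several concentrations plus oleic acid (400 uM solution). Laser-scanning cytometry with 488 nm excitation read lipid droplets at 500-530 nm and cells at 575-640 nm. Percent activity was relative to 20 uM Triacsin C.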

[1] = measured here: cell number channel AC50, cells fed with added oleic acid
[2] = measured here: lipid fluorescence (Fed channel) AC50, cells fed with added oleic acid

COc1cc(C2C(C#N)=C(N)Oc3c2ccc2ccccc32)ccc1OCC(=O)Nc1ccc(C)cc1 (configuration not stated)
cell number change: 10.3%

COc1ccc(CNC(=O)CN2C(=O)COc3ccc(S(=O)(=O)N4CCCCC4)cc32)cc1
cell number change: 18.3%

[O-][N+]12CC[N+]([O-])(CC1)c1ccccc12
cell number change: -27.7%
AC50 [1]: 1.46 µM [falling, full curve, poor fit]
AC50 [2]: 0.731 µM [falling, single point]

CCC1CCCCN1CCCNC(=O)C(C)n1nc(C)c2sc3ccccc3c2c1=O (configuration not stated)
AC50 [2]: 2.31 µM [rising, partial curve]

CNC(=O)c1c(NC(=O)c2ccc3ncsc3c2)sc(C)c1C
AC50 [1]: 0.206 µM [rising, full curve]
AC50 [2]: 0.461 µM [rising, partial curve]

COc1ccc(C(C)(C)C)cc1S(=O)(=O)n1ccnc1C
cell number change: 12.7%
AC50 [2]: 25.1 µM [falling, partial curve]

O=C(CCNC(=O)c1ccc(Cl)cc1)NN1C(=O)NC2(CCCCC2)C1=O
cell number change: 1.24%
AC50 [2]: 0.164 µM [falling, full curve, poor fit]

O=c1oc2ccccc2cc1C1=Nn2c(nnc2-c2cccnc2)SC1
cell number change: 40.8%
AC50 [1]: 11.6 µM [rising, partial curve]

O=c1n(Cc2ccccc2Cl)c2sc3c(c2c2ncnn12)CCCC3
cell number change: 8.57%
AC50 [2]: 1.3 µM [rising, partial curve]

Cc1cccc(N(CC(=O)NC2CCCC2)C(=O)CCC(=O)Nc2cc(C)on2)c1
cell number change: 0.87%
AC50 [2]: 0.651 µM [rising, partial curve, poor fit]

O=C(NCCc1ccccc1)c1ccc(-c2ccccc2C(F)(F)F)o1
cell number change: 40.4%
AC50 [1]: 14.6 µM [rising, partial curve]
AC50 [2]: 14.6 µM [rising, partial curve]

CC(=O)Nc1ccn(Cc2c(F)cccc2Cl)n1
cell number change: -26.9%
AC50 [2]: 25.9 µM [falling, single point]

Cc1ccc(C)c(S(=O)(=O)N2CCN(C(=O)/C=C/c3ccco3)CC2)c1
cell number change: -30.3%
AC50 [1]: 0.0517 µM [falling, full curve, poor fit]

CCC1(CC)NC(=O)N(CC(=O)OC(C)C(=O)Nc2ccc(Cl)cn2)C1=O (configuration not stated)
cell number change: 42.2%

Cc1ccc(-n2nnnc2SCC(=O)N2CCCCC2)cc1
cell number change: 71.2%
AC50 [1]: 16.4 µM [rising, single point]
AC50 [2]: 0.00461 µM [falling, full curve, poor fit]

COc1ccc(/C(C)=N/NC(=O)c2ccncc2)cc1[N+](=O)[O-]
cell number change: 10.9%
AC50 [2]: 29.1 µM [rising, single point]

CCSc1cc(N2CCCC2)nc(-c2ccccc2Cl)n1
cell number change: 0.731%

CN(C)CCCNC(=O)CCc1nc2ccccc2c(=O)[nH]1
cell number change: 119%
AC50 [1]: 6.51 µM [falling, single point]

CC1=CC=CN2C1=NC(=O)CC2(C)C(=O)N(CC(=O)NC1CCCC1)Cc1ccccc1 (configuration not stated)
cell number change: 13.1%

O=C(c1cccs1)N(Cc1cc2ccccc2[nH]c1=O)CC1CCCO1 (configuration not stated)
cell number change: 0.952%
AC50 [1]: 0.291 µM [rising, full curve]

COc1cccc(OCc2cc(C(=O)N(Cc3ccccc3)CC3CC3)no2)c1
cell number change: -23.9%
AC50 [2]: 18.4 µM [rising, single point]

CC1(C)Cc2c(sc3nc(SCC(=O)NCc4ccco4)n(-c4ccccc4)c(=O)c23)CS1
cell number change: -4.66%
AC50 [2]: 20.6 µM [rising, partial curve]

COc1ccc(N2CCN(C(=O)[C@H](C)NC(=O)c3ccccc3Cl)CC2)cc1
cell number change: 18.1%
AC50 [2]: 0.164 µM [falling, full curve, poor fit]

Cc1cc(C)c(S(=O)(=O)NCCn2c(C)cc3ccccc32)c(C)c1
cell number change: 14.4%
AC50 [2]: 6.51 µM [falling, single point]

O=C(Nc1nc(-c2ccccc2)cs1)c1ccc2c(c1)S(=O)(=O)c1ccccc1C2=O
cell number change: -23.6%

Cc1ccc(-c2nnn(CC(=O)Nc3cccc4cccnc34)n2)o1
cell number change: 38.1%
AC50 [1]: 8.2 µM [rising, partial curve, poor fit]
AC50 [2]: 6.51 µM [rising, single point]

Clc1ccccc1/C=C/c1nc(-c2cccnc2)no1
cell number change: 14.7%
AC50 [2]: 0.116 µM [rising, full curve, poor fit]

NC(=O)NC(CC(=O)NCCCc1ccccc1)c1ccccc1Cl (configuration not stated)
cell number change: -6.33%
AC50 [1]: 0.291 µM [falling, full curve, poor fit]
AC50 [2]: 0.291 µM [falling, full curve]

CCCNC(=O)c1ccc(Cn2cc(-c3ccc(OC)cc3)nc2C(C)N)cc1 (configuration not stated)
cell number change: -11.5%
AC50 [2]: 0.13 µM [falling, full curve, poor fit]

COc1ccc(Br)cc1/C=C/C(=O)Nc1ccc2ccccc2c1
cell number change: -8.46%
AC50 [2]: 29.1 µM [falling, single point]

C#CCOCCOCCOCCNc1nc(N2CCN(C(=O)CCCCCCCCCCNC(=O)Cn3cc(CCCCCN)nn3)CC2)nc(N2CCN(C(=O)CCCCCCCCCCNC(=O)[C@H](CO)n3cc(CCCSC)nn3)CC2)n1
cell number change: 9.17%
AC50 [1]: 2.06 µM [falling, single point]
AC50 [2]: 7.31 µM [falling, partial curve, poor fit]

Cc1ccc(/C=C/C(=O)NC(=S)Nc2ccccc2C(=O)NC2CCCCC2)cc1
cell number change: -35.6%
AC50 [1]: 18.4 µM [falling, single point]
AC50 [2]: 16.4 µM [falling, partial curve]

COc1cccc(C(=O)C2CCCN(C(=O)c3cccc(C#CC(C)(C)O)c3)C2)c1 (configuration not stated)
cell number change: -50.9%
AC50 [1]: 29.1 µM [falling, single point]
AC50 [2]: 29.1 µM [falling, single point]

COC(=O)c1ccc(Sc2ccc(C)cc2)c(N)c1
AC50 [2]: 0.0259 µM [falling, full curve, poor fit]

COc1ccc(CCNC(=O)CN(C)S(=O)(=O)c2ccc3c(c2)CCC(=O)N3)cc1OC
cell number change: 2.03%

c1ccc2c(SCc3cn4cccnc4n3)ncnc2c1
cell number change: 35.1%
AC50 [1]: 25.9 µM [rising, single point]
AC50 [2]: 23.1 µM [rising, single point]
